These are yes or no findings as the source states them, for the method shown. Some entries that bind do so weakly or less than the wild type.
Target: SZ1-(RGG)3-GFP scaffold (Caenorhabditis elegans)
Assay: fluorescence microscopy of client recruitment to scaffold condensates in yeast

B1: mScarlet-SZ2 (protein, not shown: large carriers)
chain: MARNAYLRKKIARLKKDNLQLERDEQNLEKIIANLRDEIARLENEVASHEQ
binding: binds

Reference: patent US20250115886A1
